Measurements reported in PubChem BioAssay AID1508600 (Functional Genomics Laboratory (NCATS/FGL), 2020).
Out of some 53,000 sequences screened, about 3,700 (7%) were called active.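 Rule for the calls: active = gene knockdowns whose robust z-score for IL-1 alpha signal is at least 2 or at most -2, so actives lie on both sides; inactive = the rest.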 This is one part of the list.

Experiment: Components of the Cytosolic LPS Sensing Pathway: Gene Identification via Genome-wide siRNA Screen;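 note: robust z of the log signal after scaling to non-targeting control siRNA wells of the plate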
Conditions: RAW264.7 macrophages, IL-1a HTRF, actives lie on both sides, screened at 100 nM (by protocol), cells primed 5 h with Pam3CSK4 first
Method in brief: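 IL-1a HTRF of supernatants after 24 hour LipidA transfection of Pam3CSK4-primed (5 hours) RAW264.7 cells, 48h post-siRNA transfection (100 nM). Scores: percent of plate negative-control median, then log-based robust z-score.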

Sequence	z-score
GCUAGACGGGUGUUUAAGATT against Tiam2	inactive: -1.44
GGGCAAGUGGAAGAAGAGATT against Klhdc8a	inactive: -0.759
GGCUAAGGGUGGGAAAGAATT against Csl	inactive: -1.65
UCCCUAACGGCCCUUUUUATT against H4c14	inactive: -0.729
GGACUACAGAACAAAAUGUTT against Zfp385b	inactive: 0.229
GGAAACGAUAGCCAAUAUUTT against Scp2d1	inactive: -1.08
GCUUUGAGCAGCUAGGUUATT against Tpcn2	active: 3.78
GGUGAUGCAGAAAGGUGGATT against H2-M10.5	inactive: 1.01
GGAAGGUCUAGUUGAUUGUTT against Klrb1a	inactive: -0.794
CCUAUAAUGGAGAUGAUACTT against Spty2d1	inactive: -0.46
GGACAACAUUAUAGGAAAGTT against Neu3	active: 2.36
CCAAGAUCUCAGUUGUCUCTT against Mtif2	inactive: 0.157
GGAGCUCAGCAUUAUGUAGTT against Adpgk	inactive: -0.138
GGUGUUUGCCGAGUGACUGTT against Wdr25	inactive: -0.133
GGAAGUUAGCCCUAAAGUUTT against Uchl1	inactive: -0.0263
CCAUCCAGCUUUCAUUAAATT against Nckap1l	inactive: 0.508
GGACACCUACUUGGUAUUGTT against Epor	inactive: -0.632
CCUUUCAGGUGCAUAUCCATT against Plppr1	inactive: 0.547
GGACUAUGCUGUCCAGAUCTT against Ntn1	inactive: -0.432
AGGGCGAUGCCAUUUCUUATT against Cacfd1	inactive: 0.503
GGUUGACAAUUUUCUCAAGTT against Prl	inactive: 1.44
GGAGUGGCUAUGUUUUCGATT against Hrg	inactive: 0.658

Sequence	z-score
GGUCUUCGGUUUUUUAUACTT against Olfr908	inactive: -0.337
GGGACAAAACCUUGAUGGUTT against Vmn1r200	inactive: -0.254
GCAACAAGACUCGCAUCAUTT against Cbln4	inactive: 0.866
CCUUGAGCAUAUCUUCUGUTT against Olfr420	inactive: 0.862
GGAAAGGACUAAGUCAGGATT against Mdk	inactive: -0.136
GGAGGAGACAGGCUAUUACTT against Usp25	inactive: 0.129
GCCCAAACUCAUUGAGUUUTT against Cab39l	inactive: 1.78
GCGGCAGUAGCCAGAAAAATT against Rhox7a	inactive: -1.37
GGAGAGGAAUGGUGUGUUATT against Cfap36	inactive: -1.44
GGAGACUACAAAGGAGAGCTT against Igfbp6	inactive: -0.589
GCUCGGUCUUCAUCCCAAATT against BC016548	inactive: 0.535
GGCUUCUGUGGCAGAUAAGTT against Pspn	inactive: -0.166
CGGGAAAUCAUAAAACAGGTT against Chd4	inactive: 0.0611
GGAGCUGAGGGAACCUUGUTT against Slc35c1	active: -2.67
GGCUACAUAGGAUCCACAATT against Prm2	inactive: 0.754
GGGAGAAAUUUGAUAGUUUTT against Pcmtd2	inactive: 0.955
CGAUAUCACUCAGGAGUGUTT against Ilkap	inactive: -0.594
GGAAAUGAACAUGUGACUATT against Taf1d	inactive: 0.341
GCACUACACUGAUUUGCUATT against Actr1b	inactive: -0.744
GGCAAUGGACCUUUGAUGCTT against Tmem79	inactive: -0.0601
GCAUCACUGGAUUGUGGAUTT against Tm9sf2	inactive: 0.188
UCAACAGGGCUGAUAUCCCTT against Acsl5	inactive: -1.61

Sequence	z-score
GCCCAAGGUAGAUUCCAGCTT against Atg2b	inactive: -0.0844
GCUGGACGGUAGAAGAAUCTT against Tra2a	inactive: 0.245
UAGAAGAUGCAACCUUGCUTT against Adam34	inactive: 0.188
GGUACUGAUCAGCAAGACGTT against Lca5l	inactive: 0.821
GGUUCUUUAAUAGAACAUGTT against Tyrp1	inactive: 1.08
CGAGUCUAUAAACCUCAAATT against Lce3f	inactive: 1.51
GCGUGGAAAUCAACUUACATT against Ccin	inactive: 1.41
GCCCAAGUCCAAAGUGUUGTT against Fbll1	inactive: 1.12
GCAUCGUUUUGAUCGAAUATT against Tdp2	inactive: 1.15
GCAAGAGGGUUACAGUUAGTT against 2610001J05Rik	inactive: -0.0805
GGAAUUCCCAUUGGAAGAATT against Vmn1r232	inactive: 0.0956
GGGUGAAUUUCCACCUUAUTT against Sgce	inactive: -0.521
GGAGUACGAAUUCCUCACUTT against Arhgdib	inactive: -0.0475
CCCGCUGUUUACACUAACGTT against Klk9	inactive: -0.738
GCUGAAAAGUAGAGUUAAATT against Pcm1	inactive: 0.883
GGCCUUGAAAUCGUUUUUUTT against Tceal8	inactive: 0.534
GGUGAUGAUGAUGUCUUUGTT against B3gnt7	inactive: 1.93
GGAAUGUGUGAGUGAAUUUTT against Nfyb	inactive: -0.452
GGGUUUACAAACUACACAUTT against Six3os1	inactive: 0.957
GGGCAAGUACCCAAUAAGATT against Cyp27a1	inactive: 0.794
GGGCAAGUACAAGCGUAACTT against Jph4	inactive: -1.5
GGGCUAAGGCGAAAAGACUTT against Msx2	active: 3.24

Sequence	z-score
CGAUCAUUAUGAACAGAUUTT against Olfr48	inactive: -0.174
GCCUGUAAGAUCACUAAAATT against Atxn7l1	inactive: -0.0813
GGCUUCAAUGCCAAUCGGATT against Kcnh3	inactive: 0.00875
GGGCAUUGGUUCUCAGUGUTT against Gpr157	inactive: -1.44
CGAUUUCGCCAUCUUUGGATT against Tpk1	inactive: 1.31
CCACUGUCCUGAUUUCUUATT against Olfr1037	inactive: -0.476
GCUAUAGCCCUAGAGCUAUTT against Psmb4	inactive: -0.894
AUGUCAGCGGCCCUAGAUGTT against Adam34l	active: -2.09
CGACAAGUACGAGAACGGUTT against Tcf21	inactive: 1.89
GGAUGUCCAUCAUAUUAAGTT against Tex19.2	inactive: -1.24
GCAAUGAGGAGUAUAUGUATT against Rfx5	active: 2.89
CCGGCUUUAUAAUUAGGAUTT against Olfr948	inactive: -0.0601
GGACUAGCACUUUAUGUUUTT against Strm	inactive: 0.531
CCUAUGAACUCUUAACCAATT against Pgd	inactive: -0.192
GGCAAACGAAACACUAGCATT against Cacna1d	active: 4.94
GCUCCUUGGGCGAUUUCAGTT against Aggf1	inactive: 0.265
GGAUUUUCUACUUAGCAACTT against 9630013D21Rik	inactive: 0.808
GCACGGAAGACUUACGAACTT against Cstf3	inactive: 0.439
GGAAGGAGAAGAAAACAUATT against Gtf3c6	active: -2.13
GGAACACCUCUGGAAAUCUTT against Pex12	inactive: -0.801
CUAGUUGACUUCUGGUACUTT against Olfr915	inactive: 0.889
CCUGGUGCGUUCAUUCCUGTT against Lpcat1	inactive: -0.564

A few values from above:
CCAUCCAGCUUUCAUUAAATT against Nckap1l – z-score: inactive: 0.508
CGGGAAAUCAUAAAACAGGTT against Chd4 – z-score: inactive: 0.0611
GCGUGGAAAUCAACUUACATT against Ccin – z-score: inactive: 1.41
CUAGUUGACUUCUGGUACUTT against Olfr915 – z-score: inactive: 0.889
GCAAGAGGGUUACAGUUAGTT against 2610001J05Rik – z-score: inactive: -0.0805
CGAUUUCGCCAUCUUUGGATT against Tpk1 – z-score: inactive: 1.31
GGCAAUGGACCUUUGAUGCTT against Tmem79 – z-score: inactive: -0.0601

(list continues)

Sequence	z-score
GGGACUUUUUUAGGUGAAUTT against Npl	inactive: -0.591
GGCUACCCAUGCUACCUACTT against Banf2	inactive: -0.0574
GGUUAAAAUUUGGUUUCAGTT against Cdx2	inactive: 1.49
UUUCAACUGAAUUGCACUUTT against 4930471G03Rik	inactive: 1.19
GCCACUAAGAUUGUCAUCGTT against Tacr3	inactive: -1.09
GCUACUAAUUGAUUAGUUGTT against Tmprss12	inactive: 0.936
CCGUGGUACCAUCAAUGACTT against Aarsd1	inactive: 0.142
GCUCAAUGACAGACUAGCCTT against Dusp3	inactive: -0.72
GCACAGACAUCUUUUGCCATT against Man2a2	inactive: -1
GGAUGUGUACAAUCGUACCTT against Gltpd2	inactive: 1.23
CGGGAAAGUACUGUAGAAATT against Cdc42se1	inactive: 0.197
GCACGAACAAAAUGAAUACTT against Insl6	inactive: 1.18
GGAGUACUUCCCUGUGAUCTT against Magea6	inactive: 0.454
GGUGCACAGAUGUCUUACCTT against Sec24d	inactive: -0.945
GGUAGUUAAUCAGUGUAAATT against Rps6kb1	inactive: 1.1
CGGACACUUUCACCUUCAATT against C77080	inactive: -1.25
GGCUUUUUAGGAAACUAUATT against Olfr361	active: 2.12
CGCCUUCAUAAUGUAGUUGTT against Defb37	inactive: 0.601
GGCAGUGUUUUGUCAAGUUTT against Fgd4	inactive: 1.21
